The results in this text go back to paper PMC5741268.

This experiment has as its target Tf1 integrase (IN) of the LTR-retrotransposon Tf1 of Schizosaccharomyces pombe (S. pombe (retrotransposon Tf1)). Kind of experiment: two-hybrid; LexA-IN as bait, Gal4 activation domain fusions (pACT) as prey in S. cerevisiae CTY10-5d; lacZ detected with X-gal on colonies lifted to nitrocellulose filters, at room temperature.

Results are given in words; binding and its absence hold for the method and conditions named. A result given as binding can be weak or reduced; the word gives no strength.

B1: Rhp18 (amino acids 16-308), Rad18 homolog ubiquitin protein ligase E3 (domain or fragment, UniProt O74747 16-308)
chain: KIPSLKGLDSSLRCLICHEYFRAPLITSCSHTFCSFCIRDYLREHPMCPACRAPEQESRLRKNTILEEILESFKVIRPTLFEFLKVENVPKPVLQAPETVIAQDSASGDEEWEDDLASNSSPASIAKKTSRDSKKRKREDLVHCPACSNLVPHNQINQHLDSCLNSPSSPSSSSSPYKNKDNSKSNSLLSFKTDDDSITKRRLRSFNSADELPLKDRVRLPKLTYALLSESKIRSKLSEMGLPTDGHKQLLQRRHAKWVTLYNSNLDQKQPVSKRNLIRQLIDWERVQSKSIG
Consider B1, for which the binding entry is “binds”.

B2: Cwf3 (amino acids 3-284), component of the NineTeen splicing complex (domain or fragment, UniProt Q9P7R9 3-284)
chain: DVIPLKVNFDLINVDDEPFELELLRDPYSLKSWLRYIKTHEGSTLEKRVLLFERACSELPGSYKIWKSYLELRVAHVEHLNPYFHAEAFASVNDCFERSLILLHKMPVIWKLYLQFLMKQPNVTKIRCTFNSALRALPVTQHDDIWDMFTKYAEDIGGLFCIHVYRRYIQVEPRAIENYIEILCKLGLWNEAARQYEDILNRPVFLSAKRKSNYQIWLEFSELVVQHPDHTQNIDVEKVFRAGIKRFSDQAGKLWTYLAQYYIRIGDYEKARSTFYEGMNNI
In the case of B2, the binding result is listed as “binds”.
